Test results reported in patent US20070265223A1, “COMPOSITIONS AND METHODS OF ENHANCING SURVIVABILITY AND REDUCING INJURY OF CELLS, TISSUES, ORGANS, AND ORGANISMS UNDER HYPOXIC OR ISCHEMIC CONDITIONS” (IKARIA, INC., priority 2006, published 2007).

Test system: mice subjected to lethal hypoxia
Assay: Protection of mice from lethal hypoxia using 5′-AMP
Assay type: in vivo, mouse (C57BI/6)
Settings: 4% oxygen for 60 min
Experimental: The ability of 5′-AMP to protect mice from lethal hypoxia was determined by comparing the effects of hypoxia on mice treated with 5′-AMP to the effects of hypoxia on untreated mice. Male C57BI/6 mice, 5-6 weeks old, with implanted jugular vein catheter (Taconic) were implanted dorsally with a subcutaneous RFID temperature sensor (IPTT-300, Bio Medic Data Systems, Inc.) and allowed to recover for at least 24 hours. Adenosine-5′-monophosphate (AMP sodium salt, Sigma) was dissolved in water, the osmolarity was adjusted with sodium chloride to 300 mOsm, the pH was adjusted with NaOH to 6.3, and the solution was filtered through a 0.2 um filter. The final AMP concentration was 40 mM. Mice were placed into a tall glass-bottom jar with opaque walls and infused via the jugular vein at a rate of 0.8 ul/min for 59.5 min followed by 1.6 ul/min for 12.8 min (total AMP dose=145 umol/kg) with a syringe pump (Harvard Apparatus), until their subcutaneous temperature had decreased to about 33° C. The infusion was stopped, and the mice were exposed for 60 min to an atmosphere of 4% oxygen constructed by mixing air and nitrogen using mass flow controllers (Sierra Instruments). During the infusion and exposure to hypoxia, the animals' subcutaneous temperature was read every 3-5 min and their vital signs were monitored. […] A control mouse was exposed to hypoxia, and its time of death was recorded. […]

Nc1ncnc2c1ncn2[C@@H]1O[C@H](COP(=O)(O)O)[C@@H](O)[C@H]1O [5′-AMP, Adenosine-5′-monophosphate]
lowest subcutaneous temperature (mouse MJVC80, total AMP dose 145 umol/kg): 23.4 °C | lowest subcutaneous temperature (mouse MJVC83, total AMP dose 69 umol/kg): 24 °C
